Measured values reported in the supplement of paper PMC6411743.
± gives the standard deviation of the averaged measurements. Only a part is listed here, and it is no random draw. Most entries show no effect beyond the scatter of the controls.

Protein sequences, listed by entry. Tags and fused reporters are not part of them. Lines headed by an entry give the natural chain unless they say otherwise; changes in a name come on top.
UniProt Q16851: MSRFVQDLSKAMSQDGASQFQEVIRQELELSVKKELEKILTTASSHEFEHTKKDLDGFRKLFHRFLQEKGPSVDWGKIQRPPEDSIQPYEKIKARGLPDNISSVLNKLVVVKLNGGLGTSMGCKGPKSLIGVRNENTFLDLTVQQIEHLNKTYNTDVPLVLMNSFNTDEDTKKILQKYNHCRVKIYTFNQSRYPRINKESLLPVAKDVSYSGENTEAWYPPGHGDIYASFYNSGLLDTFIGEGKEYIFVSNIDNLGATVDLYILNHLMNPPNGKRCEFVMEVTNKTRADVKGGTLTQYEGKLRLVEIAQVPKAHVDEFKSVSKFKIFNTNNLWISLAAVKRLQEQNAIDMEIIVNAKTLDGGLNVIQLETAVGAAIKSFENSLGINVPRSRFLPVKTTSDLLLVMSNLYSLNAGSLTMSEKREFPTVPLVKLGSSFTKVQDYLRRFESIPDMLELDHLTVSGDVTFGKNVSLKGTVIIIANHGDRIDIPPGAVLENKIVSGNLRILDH
UniProt Q53EL6: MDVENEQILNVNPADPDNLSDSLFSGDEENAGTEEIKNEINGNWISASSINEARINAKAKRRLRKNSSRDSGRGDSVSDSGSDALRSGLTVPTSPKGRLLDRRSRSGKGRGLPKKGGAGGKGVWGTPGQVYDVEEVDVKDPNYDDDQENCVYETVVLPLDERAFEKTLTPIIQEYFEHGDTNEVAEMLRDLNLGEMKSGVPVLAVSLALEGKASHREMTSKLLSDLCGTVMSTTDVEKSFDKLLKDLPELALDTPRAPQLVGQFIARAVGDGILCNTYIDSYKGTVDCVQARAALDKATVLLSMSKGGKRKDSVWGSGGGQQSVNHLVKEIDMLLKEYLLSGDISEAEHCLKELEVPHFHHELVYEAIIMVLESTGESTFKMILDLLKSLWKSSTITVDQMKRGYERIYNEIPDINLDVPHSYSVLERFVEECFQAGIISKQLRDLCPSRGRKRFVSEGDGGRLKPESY
UniProt Q16656: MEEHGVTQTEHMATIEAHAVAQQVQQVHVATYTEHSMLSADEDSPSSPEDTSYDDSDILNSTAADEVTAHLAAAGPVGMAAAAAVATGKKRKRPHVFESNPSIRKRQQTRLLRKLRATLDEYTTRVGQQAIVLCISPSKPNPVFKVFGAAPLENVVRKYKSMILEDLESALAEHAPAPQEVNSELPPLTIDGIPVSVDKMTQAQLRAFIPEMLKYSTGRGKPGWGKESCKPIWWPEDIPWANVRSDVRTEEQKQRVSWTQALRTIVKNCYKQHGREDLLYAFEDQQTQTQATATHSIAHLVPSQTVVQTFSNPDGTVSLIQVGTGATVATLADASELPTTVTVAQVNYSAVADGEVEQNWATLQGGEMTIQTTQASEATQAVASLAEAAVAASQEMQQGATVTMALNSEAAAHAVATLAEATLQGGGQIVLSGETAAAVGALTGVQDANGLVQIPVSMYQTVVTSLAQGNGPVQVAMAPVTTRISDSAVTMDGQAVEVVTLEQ
UniProt Q15208: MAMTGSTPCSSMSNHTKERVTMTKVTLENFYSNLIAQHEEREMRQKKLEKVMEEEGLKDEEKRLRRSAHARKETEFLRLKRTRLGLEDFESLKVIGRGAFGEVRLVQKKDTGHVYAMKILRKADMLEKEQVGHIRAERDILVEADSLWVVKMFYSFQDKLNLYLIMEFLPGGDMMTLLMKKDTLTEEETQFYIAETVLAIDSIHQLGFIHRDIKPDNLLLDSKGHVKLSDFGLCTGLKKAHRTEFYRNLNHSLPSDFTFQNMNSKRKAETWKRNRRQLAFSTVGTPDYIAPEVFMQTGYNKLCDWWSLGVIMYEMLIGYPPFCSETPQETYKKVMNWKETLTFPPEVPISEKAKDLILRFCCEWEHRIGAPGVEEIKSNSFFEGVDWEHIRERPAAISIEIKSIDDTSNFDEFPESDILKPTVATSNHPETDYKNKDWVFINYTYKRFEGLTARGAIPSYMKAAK
UniProt Q4VC31: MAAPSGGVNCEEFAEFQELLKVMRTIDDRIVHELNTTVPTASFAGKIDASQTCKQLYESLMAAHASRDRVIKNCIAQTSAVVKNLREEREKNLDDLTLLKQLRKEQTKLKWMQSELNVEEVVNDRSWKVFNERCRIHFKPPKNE
UniProt Q16401: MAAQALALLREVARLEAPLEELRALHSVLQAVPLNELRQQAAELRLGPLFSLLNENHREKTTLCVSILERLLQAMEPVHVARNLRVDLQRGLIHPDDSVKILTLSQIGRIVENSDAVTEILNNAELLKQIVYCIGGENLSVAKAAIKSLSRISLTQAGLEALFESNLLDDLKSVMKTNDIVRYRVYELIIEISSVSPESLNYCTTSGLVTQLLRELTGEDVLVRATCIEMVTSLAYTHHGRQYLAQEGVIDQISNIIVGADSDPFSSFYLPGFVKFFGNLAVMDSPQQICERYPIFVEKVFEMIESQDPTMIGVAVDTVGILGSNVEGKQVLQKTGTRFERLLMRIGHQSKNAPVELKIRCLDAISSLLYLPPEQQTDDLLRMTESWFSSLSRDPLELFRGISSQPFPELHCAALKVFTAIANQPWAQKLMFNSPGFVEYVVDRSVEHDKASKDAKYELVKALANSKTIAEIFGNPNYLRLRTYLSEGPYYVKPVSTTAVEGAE
UniProt Q4VCS5: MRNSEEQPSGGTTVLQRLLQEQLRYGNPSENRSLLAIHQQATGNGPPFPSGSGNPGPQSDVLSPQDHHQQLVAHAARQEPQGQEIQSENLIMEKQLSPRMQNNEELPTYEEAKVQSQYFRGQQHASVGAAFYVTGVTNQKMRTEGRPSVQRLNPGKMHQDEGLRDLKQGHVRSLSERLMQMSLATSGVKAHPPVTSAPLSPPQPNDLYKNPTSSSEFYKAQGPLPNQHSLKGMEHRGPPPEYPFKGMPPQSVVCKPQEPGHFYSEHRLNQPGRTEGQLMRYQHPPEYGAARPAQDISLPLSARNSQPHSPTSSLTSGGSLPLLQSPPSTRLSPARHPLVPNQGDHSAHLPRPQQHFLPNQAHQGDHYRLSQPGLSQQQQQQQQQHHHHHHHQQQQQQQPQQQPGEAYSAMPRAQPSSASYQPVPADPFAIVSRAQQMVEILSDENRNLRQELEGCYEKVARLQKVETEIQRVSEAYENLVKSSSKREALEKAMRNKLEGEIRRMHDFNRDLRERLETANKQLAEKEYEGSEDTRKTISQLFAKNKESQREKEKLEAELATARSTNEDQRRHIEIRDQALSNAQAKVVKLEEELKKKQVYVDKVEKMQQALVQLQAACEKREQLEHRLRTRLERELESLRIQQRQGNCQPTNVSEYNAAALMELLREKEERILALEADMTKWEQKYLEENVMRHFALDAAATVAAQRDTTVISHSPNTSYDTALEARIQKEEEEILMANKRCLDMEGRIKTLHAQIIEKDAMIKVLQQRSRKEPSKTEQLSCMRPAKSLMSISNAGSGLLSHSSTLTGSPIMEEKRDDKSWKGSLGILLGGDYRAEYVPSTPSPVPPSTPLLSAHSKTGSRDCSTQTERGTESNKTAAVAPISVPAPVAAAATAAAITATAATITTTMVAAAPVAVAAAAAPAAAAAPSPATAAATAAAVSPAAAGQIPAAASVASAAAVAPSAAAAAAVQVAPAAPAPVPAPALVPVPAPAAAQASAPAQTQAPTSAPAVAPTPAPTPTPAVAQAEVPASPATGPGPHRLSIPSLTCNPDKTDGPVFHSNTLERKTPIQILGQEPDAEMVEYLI
UniProt Q15120, whole entry, looked up: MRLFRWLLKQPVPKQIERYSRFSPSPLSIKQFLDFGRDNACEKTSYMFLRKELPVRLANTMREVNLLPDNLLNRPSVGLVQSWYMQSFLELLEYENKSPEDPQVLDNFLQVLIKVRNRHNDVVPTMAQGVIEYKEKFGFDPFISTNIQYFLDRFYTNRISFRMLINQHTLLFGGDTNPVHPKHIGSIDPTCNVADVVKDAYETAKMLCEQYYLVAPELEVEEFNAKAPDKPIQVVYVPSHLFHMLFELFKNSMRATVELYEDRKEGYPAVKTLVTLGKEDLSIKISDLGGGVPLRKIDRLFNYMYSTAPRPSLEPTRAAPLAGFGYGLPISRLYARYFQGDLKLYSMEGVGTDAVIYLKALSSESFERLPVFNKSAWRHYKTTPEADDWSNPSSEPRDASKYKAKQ
UniProt Q562F6: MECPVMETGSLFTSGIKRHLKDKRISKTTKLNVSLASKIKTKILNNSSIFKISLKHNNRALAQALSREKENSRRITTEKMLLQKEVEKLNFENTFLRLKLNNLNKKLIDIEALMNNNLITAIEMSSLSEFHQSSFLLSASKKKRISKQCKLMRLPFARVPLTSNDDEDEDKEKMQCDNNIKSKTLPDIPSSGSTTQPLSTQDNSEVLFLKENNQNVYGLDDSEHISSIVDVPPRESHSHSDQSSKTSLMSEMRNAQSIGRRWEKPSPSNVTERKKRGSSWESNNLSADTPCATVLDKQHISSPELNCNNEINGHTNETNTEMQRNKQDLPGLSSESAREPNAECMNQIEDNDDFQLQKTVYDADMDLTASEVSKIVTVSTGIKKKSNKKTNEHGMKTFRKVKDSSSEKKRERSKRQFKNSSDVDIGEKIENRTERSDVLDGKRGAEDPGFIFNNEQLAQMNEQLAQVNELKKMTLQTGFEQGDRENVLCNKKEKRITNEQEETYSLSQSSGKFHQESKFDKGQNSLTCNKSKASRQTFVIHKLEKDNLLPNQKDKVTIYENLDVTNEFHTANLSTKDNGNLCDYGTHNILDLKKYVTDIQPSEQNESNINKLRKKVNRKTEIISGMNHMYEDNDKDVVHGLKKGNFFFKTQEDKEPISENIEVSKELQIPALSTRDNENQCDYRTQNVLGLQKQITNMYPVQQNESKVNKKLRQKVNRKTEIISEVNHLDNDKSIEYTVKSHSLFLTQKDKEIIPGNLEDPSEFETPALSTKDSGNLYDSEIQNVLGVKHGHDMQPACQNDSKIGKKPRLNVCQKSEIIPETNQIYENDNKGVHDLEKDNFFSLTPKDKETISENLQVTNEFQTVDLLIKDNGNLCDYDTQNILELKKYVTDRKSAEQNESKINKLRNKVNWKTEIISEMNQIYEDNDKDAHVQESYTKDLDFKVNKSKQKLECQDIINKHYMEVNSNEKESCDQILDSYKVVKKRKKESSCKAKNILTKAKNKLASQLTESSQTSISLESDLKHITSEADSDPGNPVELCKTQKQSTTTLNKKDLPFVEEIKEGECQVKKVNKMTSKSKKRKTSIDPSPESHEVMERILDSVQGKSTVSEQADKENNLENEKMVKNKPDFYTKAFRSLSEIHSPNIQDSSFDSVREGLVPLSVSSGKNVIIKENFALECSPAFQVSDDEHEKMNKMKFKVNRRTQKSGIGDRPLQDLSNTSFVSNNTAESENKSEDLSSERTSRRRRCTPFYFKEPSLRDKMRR
UniProt Q8IVH4: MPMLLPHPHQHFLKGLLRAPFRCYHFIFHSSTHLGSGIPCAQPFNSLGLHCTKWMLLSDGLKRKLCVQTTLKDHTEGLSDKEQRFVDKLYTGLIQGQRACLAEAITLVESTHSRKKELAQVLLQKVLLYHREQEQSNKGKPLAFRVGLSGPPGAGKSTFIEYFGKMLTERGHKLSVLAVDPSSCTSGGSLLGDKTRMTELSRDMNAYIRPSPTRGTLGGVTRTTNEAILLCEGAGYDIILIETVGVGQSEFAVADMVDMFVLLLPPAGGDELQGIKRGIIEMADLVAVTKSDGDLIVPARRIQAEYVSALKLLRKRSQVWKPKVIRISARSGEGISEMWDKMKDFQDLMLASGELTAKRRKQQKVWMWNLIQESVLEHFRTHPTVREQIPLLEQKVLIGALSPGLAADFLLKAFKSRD
UniProt Q5T3J3: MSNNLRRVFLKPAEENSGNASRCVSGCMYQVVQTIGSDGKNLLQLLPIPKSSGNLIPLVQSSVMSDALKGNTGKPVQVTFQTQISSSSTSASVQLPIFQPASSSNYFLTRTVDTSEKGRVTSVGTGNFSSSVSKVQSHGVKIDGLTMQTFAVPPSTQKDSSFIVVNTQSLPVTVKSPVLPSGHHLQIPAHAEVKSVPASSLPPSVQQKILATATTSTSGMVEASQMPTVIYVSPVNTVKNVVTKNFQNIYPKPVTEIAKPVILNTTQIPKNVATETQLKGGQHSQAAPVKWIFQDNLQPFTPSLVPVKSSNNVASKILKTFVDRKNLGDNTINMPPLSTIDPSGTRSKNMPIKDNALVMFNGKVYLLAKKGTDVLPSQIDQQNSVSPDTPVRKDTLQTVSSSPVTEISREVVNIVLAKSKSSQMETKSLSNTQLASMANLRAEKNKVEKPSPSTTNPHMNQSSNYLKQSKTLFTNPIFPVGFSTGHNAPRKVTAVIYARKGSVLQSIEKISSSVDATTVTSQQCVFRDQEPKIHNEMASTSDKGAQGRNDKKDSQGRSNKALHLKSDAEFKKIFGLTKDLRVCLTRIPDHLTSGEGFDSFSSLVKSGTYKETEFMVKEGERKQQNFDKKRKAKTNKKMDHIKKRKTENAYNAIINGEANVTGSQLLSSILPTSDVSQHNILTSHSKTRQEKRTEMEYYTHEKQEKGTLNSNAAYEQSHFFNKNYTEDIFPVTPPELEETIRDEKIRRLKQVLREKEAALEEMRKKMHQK

Compound: Nc1ncnc2c1ncn2[C@@H]1O[C@H](COP(=O)(O)OP(=O)(O)NP(=O)(O)O)[C@@H](O)[C@H]1O [adenylyl imidodiphosphate]
Test: NP40-soluble protein abundance relative to vehicle (solubility fold change) (ratio); higher = more soluble protein in presence of AMP-PNP
Outline: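 Jurkat crude lysate prepared with a Dounce homogeniser was treated at eight concentrations spanning 0.1 to 10 mM, 10 min at room temperature then 3 min at 37 °C. Solubilisation with 0.8% NP40 and benzonase and ultracentrifugation preceded TMT labelling of the supernatant for LC-MS/MS. Fold change against the detergent-processed vehicle was determined per replicate from vsn-normalised intensities, across three independent experiments.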

Q: With UniProt Q16851 and related entries as the target, how does the NP40-soluble protein abundance (concentration: 0.1mM) read?
A: The NP40-soluble protein abundance was 1.02 ± 0.03.

Q: And the NP40-soluble protein abundance (concentration: 0.5mM)?
A: The NP40-soluble protein abundance was 1 ± 0.053.

Q: For UniProt Q53EL6 and related entries, which NP40-soluble protein abundance (concentration: 0.1mM) is on record?
A: The NP40-soluble protein abundance was 1.03 ± 0.048.

Q: What about the NP40-soluble protein abundance (concentration: 0.5mM) of the same target?
A: Its NP40-soluble protein abundance is 1.07 ± 0.056.

Q: With MIA3 (UniProt Q5JRA6) as the target, how does the NP40-soluble protein abundance (concentration: 0.1mM) read?
A: Its NP40-soluble protein abundance is 0.986 ± 0.023.

Q: And the NP40-soluble protein abundance (concentration: 0.5mM)?
A: The NP40-soluble protein abundance was 1.01 ± 0.049.

Q: Which NP40-soluble protein abundance (concentration: 0.1mM) does the source give for UniProt Q5JTV8 and related entries here?
A: The NP40-soluble protein abundance was 0.959 ± 0.026.

Q: What about the NP40-soluble protein abundance (concentration: 0.5mM) of the same target?
A: The NP40-soluble protein abundance was 0.981 ± 0.044.

Q: UniProt Q16656 and related entries was tested. Which NP40-soluble protein abundance (concentration: 0.1mM) did it give?
A: The NP40-soluble protein abundance was 1.03 ± 0.072.

Q: And the NP40-soluble protein abundance (concentration: 0.5mM)?
A: The NP40-soluble protein abundance was 1 ± 0.05.

Q: For UniProt Q5JS54 and related entries, which NP40-soluble protein abundance (concentration: 0.1mM) is on record?
A: Its NP40-soluble protein abundance is 0.9903 ± 0.0047.

Q: What about the NP40-soluble protein abundance (concentration: 0.5mM) of the same target?
A: Its NP40-soluble protein abundance is 0.992 ± 0.041.

Q: Which results are given for UniProt Q5JTJ3 and related entries?
A: NP40-soluble protein abundance (concentration: 0.1mM): 0.977 ± 0.033; NP40-soluble protein abundance (concentration: 0.5mM): 1.01 ± 0.029

Q: With UniProt Q5TCQ9-4 as the target, how does the NP40-soluble protein abundance (concentration: 0.1mM) read?
A: The NP40-soluble protein abundance was 0.9796 ± 0.0053.

Q: And the NP40-soluble protein abundance (concentration: 0.5mM)?
A: The NP40-soluble protein abundance was 1 ± 0.012.

Q: UniProt Q5JS37 and related entries was tested. Which NP40-soluble protein abundance (concentration: 0.1mM) did it give?
A: Its NP40-soluble protein abundance is 0.983 ± 0.028.

Q: And the NP40-soluble protein abundance (concentration: 0.5mM)?
A: The NP40-soluble protein abundance was 0.986 ± 0.065.

Q: Which NP40-soluble protein abundance (concentration: 0.1mM) does the source give for VPS26B (UniProt Q4G0F5) here?
A: The NP40-soluble protein abundance was 1.02 ± 0.068.

Q: And the NP40-soluble protein abundance (concentration: 0.5mM)?
A: Its NP40-soluble protein abundance is 0.954 ± 0.14.

Q: With UniProt Q16875 and related entries as the target, how does the NP40-soluble protein abundance (concentration: 0.1mM) read?
A: The NP40-soluble protein abundance was 0.995 ± 0.023.

Q: What about the NP40-soluble protein abundance (concentration: 0.5mM) of the same target?
A: The NP40-soluble protein abundance was 0.994 ± 0.038.

Q: Which NP40-soluble protein abundance (concentration: 0.1mM) does the source give for UniProt Q15208 here?
A: Its NP40-soluble protein abundance is 1.03 ± 0.017.

Q: And the NP40-soluble protein abundance (concentration: 0.5mM)?
A: Its NP40-soluble protein abundance is 1.01 ± 0.045.

Q: How did the NP40-soluble protein abundance (concentration: 0.1mM) turn out when UniProt Q5JSP0 and related entries was run?
A: Its NP40-soluble protein abundance is 1.02 ± 0.026.

Q: And the NP40-soluble protein abundance (concentration: 0.5mM)?
A: Its NP40-soluble protein abundance is 1.01 ± 0.036.

Q: Which NP40-soluble protein abundance (concentration: 0.1mM) does the source give for LLGL1 (UniProt Q15334) here?
A: The NP40-soluble protein abundance was 1.05 ± 0.017.

Q: What about the NP40-soluble protein abundance (concentration: 0.5mM) of the same target?
A: Its NP40-soluble protein abundance is 0.961 ± 0.019.

Q: TBCEL (UniProt Q5QJ74) was tested. Which NP40-soluble protein abundance (concentration: 0.1mM) did it give?
A: Its NP40-soluble protein abundance is 0.995 ± 0.041.

Q: What about the NP40-soluble protein abundance (concentration: 0.5mM) of the same target?
A: Its NP40-soluble protein abundance is 1.01 ± 0.018.

Q: Which NP40-soluble protein abundance (concentration: 0.1mM) does the source give for CCDC58 (UniProt Q4VC31) here?
A: The NP40-soluble protein abundance was 0.983 ± 0.059.

Q: What about the NP40-soluble protein abundance (concentration: 0.5mM) of the same target?
A: The NP40-soluble protein abundance was 1.02 ± 0.047.

Q: What does the source list for HSDL1 (UniProt Q3SXM5)?
A: NP40-soluble protein abundance (concentration: 0.1mM): 1.02 ± 0.038; NP40-soluble protein abundance (concentration: 0.5mM): 0.954 ± 0.12

Q: Which NP40-soluble protein abundance (concentration: 0.1mM) does the source give for “UniProt Q5JPI3-2|E9PFZ1 and related entries” here?
A: The NP40-soluble protein abundance was 0.989 ± 0.079.

Q: And the NP40-soluble protein abundance (concentration: 0.5mM)?
A: The NP40-soluble protein abundance was 0.998 ± 0.034.

Q: For UniProt Q3MHD2 and related entries, which NP40-soluble protein abundance (concentration: 0.1mM) is on record?
A: The NP40-soluble protein abundance was 1.03 ± 0.023.

Q: And the NP40-soluble protein abundance (concentration: 0.5mM)?
A: Its NP40-soluble protein abundance is 1.06 ± 0.082.

Q: UniProt Q16854 and related entries was tested. Which NP40-soluble protein abundance (concentration: 0.1mM) did it give?
A: The NP40-soluble protein abundance was 0.999 ± 0.03.

Q: What about the NP40-soluble protein abundance (concentration: 0.5mM) of the same target?
A: Its NP40-soluble protein abundance is 0.93 ± 0.082.

Q: For UniProt Q16401 and related entries, which NP40-soluble protein abundance (concentration: 0.1mM) is on record?
A: Its NP40-soluble protein abundance is 1.05 ± 0.041.

Q: And the NP40-soluble protein abundance (concentration: 0.5mM)?
A: The NP40-soluble protein abundance was 1.03 ± 0.052.

Q: Which NP40-soluble protein abundance (concentration: 0.1mM) does the source give for AMOT (UniProt Q4VCS5) here?
A: The NP40-soluble protein abundance was 0.991 ± 0.035.

Q: And the NP40-soluble protein abundance (concentration: 0.5mM)?
A: Its NP40-soluble protein abundance is 1.01 ± 0.018.

Q: ZYX (UniProt Q15942) was tested. Which NP40-soluble protein abundance (concentration: 0.1mM) did it give?
A: Its NP40-soluble protein abundance is 0.993 ± 0.022.

Q: What about the NP40-soluble protein abundance (concentration: 0.5mM) of the same target?
A: Its NP40-soluble protein abundance is 1 ± 0.039.

Q: Which results are given for UniProt Q5H8A4-5?
A: NP40-soluble protein abundance (concentration: 0.1mM): 0.999 ± 0.011; NP40-soluble protein abundance (concentration: 0.5mM): 0.98 ± 0.019

Q: UniProt Q5MIZ7 and related entries was tested. Which NP40-soluble protein abundance (concentration: 0.1mM) did it give?
A: The NP40-soluble protein abundance was 0.989 ± 0.03.

Q: What about the NP40-soluble protein abundance (concentration: 0.5mM) of the same target?
A: The NP40-soluble protein abundance was 1 ± 0.044.

Q: What does the source list for UniProt Q15120 and related entries?
A: NP40-soluble protein abundance (concentration: 0.1mM): 1.07 ± 0.1; NP40-soluble protein abundance (concentration: 0.5mM): 1.02 ± 0.063

Q: Which results are given for UniProt Q562F6 and related entries?
A: NP40-soluble protein abundance (concentration: 0.1mM): 1 ± 0.031; NP40-soluble protein abundance (concentration: 0.5mM): 0.999 ± 0.021

Q: For UniProt Q17R31 and related entries, which NP40-soluble protein abundance (concentration: 0.1mM) is on record?
A: Its NP40-soluble protein abundance is 1 ± 0.021.

Q: And the NP40-soluble protein abundance (concentration: 0.5mM)?
A: The NP40-soluble protein abundance was 1 ± 0.012.

Q: How did the NP40-soluble protein abundance (concentration: 0.1mM) turn out when PPA1 (UniProt Q15181) was run?
A: The NP40-soluble protein abundance was 0.9789 ± 0.0076.

Q: And the NP40-soluble protein abundance (concentration: 0.5mM)?
A: The NP40-soluble protein abundance was 1.01 ± 0.021.

Q: “Q495G5 and related entries (UniProt Q8IVH4)” was tested. Which NP40-soluble protein abundance (concentration: 0.1mM) did it give?
A: The NP40-soluble protein abundance was 0.974 ± 0.031.

Q: And the NP40-soluble protein abundance (concentration: 0.5mM)?
A: The NP40-soluble protein abundance was 0.985 ± 0.045.

Q: For ELAVL1 (UniProt Q15717), which NP40-soluble protein abundance (concentration: 0.1mM) is on record?
A: The NP40-soluble protein abundance was 0.999 ± 0.021.

Q: And the NP40-soluble protein abundance (concentration: 0.5mM)?
A: The NP40-soluble protein abundance was 0.997 ± 0.022.

Q: How did the NP40-soluble protein abundance (concentration: 0.1mM) turn out when SF3B3 (UniProt Q15393) was run?
A: Its NP40-soluble protein abundance is 1.029 ± 0.0052.

Q: What about the NP40-soluble protein abundance (concentration: 0.5mM) of the same target?
A: Its NP40-soluble protein abundance is 1.02 ± 0.072.

Q: Which results are given for SF3A2 (UniProt Q15428)?
A: NP40-soluble protein abundance (concentration: 0.1mM): 0.993 ± 0.023; NP40-soluble protein abundance (concentration: 0.5mM): 1 ± 0.066

Q: For UniProt Q16222 and related entries, which NP40-soluble protein abundance (concentration: 0.1mM) is on record?
A: The NP40-soluble protein abundance was 1.01 ± 0.042.

Q: What about the NP40-soluble protein abundance (concentration: 0.5mM) of the same target?
A: Its NP40-soluble protein abundance is 0.992 ± 0.043.

Q: For UniProt Q5T3J3, which NP40-soluble protein abundance (concentration: 0.1mM) is on record?
A: Its NP40-soluble protein abundance is 1.027 ± 0.0049.

Q: And the NP40-soluble protein abundance (concentration: 0.5mM)?
A: The NP40-soluble protein abundance was 1.05 ± 0.012.

Q: UniProt Q504Q3 and related entries was tested. Which NP40-soluble protein abundance (concentration: 0.1mM) did it give?
A: The NP40-soluble protein abundance was 1 ± 0.021.

Q: And the NP40-soluble protein abundance (concentration: 0.5mM)?
A: The NP40-soluble protein abundance was 1.005 ± 0.0091.

Q: Which NP40-soluble protein abundance (concentration: 0.1mM) does the source give for HNRNPUL2 (UniProt Q1KMD3) here?
A: The NP40-soluble protein abundance was 1.03 ± 0.054.

Q: What about the NP40-soluble protein abundance (concentration: 0.5mM) of the same target?
A: Its NP40-soluble protein abundance is 1 ± 0.08.

Q: Which results are given for UniProt Q2KHR3 and related entries?
A: NP40-soluble protein abundance (concentration: 0.1mM): 1.013 ± 0.0053; NP40-soluble protein abundance (concentration: 0.5mM): 1.02 ± 0.035

Q: With UniProt Q32P28 and related entries as the target, how does the NP40-soluble protein abundance (concentration: 0.1mM) read?
A: Its NP40-soluble protein abundance is 0.978 ± 0.011.

Q: What about the NP40-soluble protein abundance (concentration: 0.5mM) of the same target?
A: Its NP40-soluble protein abundance is 0.985 ± 0.019.
